From publication PMC6028960, “The kinetochore proteins CENP-E and CENP-F directly and specifically interact with distinct BUB mitotic checkpoint Ser/Thr kinases” (The Journal of Biological Chemistry, 2018) come the findings set out here.

By UniProt entry, the sequences of proteins in these tests, tags left out. Where a name states a change or a piece, a line headed by the entry shows the natural chain unless it says otherwise.
UniProt O43683: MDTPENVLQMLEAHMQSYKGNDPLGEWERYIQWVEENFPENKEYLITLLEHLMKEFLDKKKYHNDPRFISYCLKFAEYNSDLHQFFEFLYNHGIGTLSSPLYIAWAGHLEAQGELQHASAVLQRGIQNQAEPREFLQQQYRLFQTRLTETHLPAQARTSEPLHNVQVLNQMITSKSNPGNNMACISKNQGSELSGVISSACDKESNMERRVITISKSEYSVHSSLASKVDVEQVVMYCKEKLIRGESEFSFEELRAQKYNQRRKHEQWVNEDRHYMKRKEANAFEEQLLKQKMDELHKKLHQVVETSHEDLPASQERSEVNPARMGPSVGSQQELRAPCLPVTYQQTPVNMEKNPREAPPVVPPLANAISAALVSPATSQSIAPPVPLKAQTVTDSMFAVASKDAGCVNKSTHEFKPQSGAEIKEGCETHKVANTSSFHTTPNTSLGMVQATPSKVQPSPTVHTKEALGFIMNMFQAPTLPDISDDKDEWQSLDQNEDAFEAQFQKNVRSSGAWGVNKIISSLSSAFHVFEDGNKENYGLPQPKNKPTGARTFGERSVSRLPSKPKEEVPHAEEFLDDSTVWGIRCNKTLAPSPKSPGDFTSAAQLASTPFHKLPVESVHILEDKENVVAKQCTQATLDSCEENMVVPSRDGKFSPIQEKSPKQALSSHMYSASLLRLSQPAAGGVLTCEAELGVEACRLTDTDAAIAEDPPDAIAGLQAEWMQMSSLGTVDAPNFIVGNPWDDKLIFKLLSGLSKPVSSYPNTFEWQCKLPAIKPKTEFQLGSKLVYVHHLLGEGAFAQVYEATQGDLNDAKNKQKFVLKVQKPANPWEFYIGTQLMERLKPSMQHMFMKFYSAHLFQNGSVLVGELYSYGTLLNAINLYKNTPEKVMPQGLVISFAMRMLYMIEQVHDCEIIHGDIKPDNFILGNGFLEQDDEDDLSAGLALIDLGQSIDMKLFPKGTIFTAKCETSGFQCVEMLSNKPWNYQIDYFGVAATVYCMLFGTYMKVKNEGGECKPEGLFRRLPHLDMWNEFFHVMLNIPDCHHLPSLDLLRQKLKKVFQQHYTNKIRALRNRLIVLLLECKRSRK
UniProt O60566: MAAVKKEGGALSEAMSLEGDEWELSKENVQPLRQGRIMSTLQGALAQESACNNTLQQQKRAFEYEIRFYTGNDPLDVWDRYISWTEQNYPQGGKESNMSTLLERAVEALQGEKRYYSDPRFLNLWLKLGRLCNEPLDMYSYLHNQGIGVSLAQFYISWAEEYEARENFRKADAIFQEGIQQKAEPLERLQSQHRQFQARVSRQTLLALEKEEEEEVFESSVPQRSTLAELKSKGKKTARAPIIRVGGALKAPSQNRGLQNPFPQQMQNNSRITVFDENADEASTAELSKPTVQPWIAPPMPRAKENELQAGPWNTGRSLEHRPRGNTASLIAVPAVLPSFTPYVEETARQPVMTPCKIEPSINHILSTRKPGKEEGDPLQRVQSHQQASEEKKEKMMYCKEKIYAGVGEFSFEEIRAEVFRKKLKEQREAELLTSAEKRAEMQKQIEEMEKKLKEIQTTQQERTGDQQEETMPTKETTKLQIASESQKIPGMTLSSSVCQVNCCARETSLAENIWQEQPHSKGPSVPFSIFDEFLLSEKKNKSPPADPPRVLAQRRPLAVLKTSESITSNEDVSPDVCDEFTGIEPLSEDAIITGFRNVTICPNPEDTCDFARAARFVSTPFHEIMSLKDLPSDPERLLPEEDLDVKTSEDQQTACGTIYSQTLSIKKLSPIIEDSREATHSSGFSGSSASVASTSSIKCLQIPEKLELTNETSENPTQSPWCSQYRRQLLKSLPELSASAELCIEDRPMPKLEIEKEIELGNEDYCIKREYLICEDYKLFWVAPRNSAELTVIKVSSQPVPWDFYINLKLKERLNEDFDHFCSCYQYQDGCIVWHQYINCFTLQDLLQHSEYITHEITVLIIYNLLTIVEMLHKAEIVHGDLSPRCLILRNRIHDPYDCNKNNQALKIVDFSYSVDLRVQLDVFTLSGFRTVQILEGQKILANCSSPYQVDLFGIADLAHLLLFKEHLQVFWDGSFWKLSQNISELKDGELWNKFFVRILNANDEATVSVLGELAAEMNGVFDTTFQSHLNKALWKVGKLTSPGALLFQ

Results are given in words; binding and its absence hold for the method and conditions named. Some binding calls cover weakened binding; strength is not graded here.

Test [1] addresses BUB1^FL/BUB3 complex (UniProt O43683). In words: SEC; analytical SEC; BUB1/BUB3, BUBR1/BUB3, eGFP-CENP-E^2070-C and mCherry-CENP-F^2688-C all combined, each at 6 μM loading concentration; elution also monitored by fluorescence; both purified.
Test [2] has the same target. The experiment in a line: SEC; analytical SEC; 4 μM BUB1 or BUBR1 constructs or BUB1/BUB3 or BUBR1/BUB3 complexes mixed with 16 μM CENP-E or CENP-F proteins in 30 μl; 4 °C; Superose 6 5/150 or Superdex 75 5/150; 50 mM Hepes pH 8.0, 100 mM NaCl, 5% glycerol, 0.5 mM TCEP; fractions by SDS-PAGE; both purified.

Turning to “BUBR1/BUB3 complex (from UniProt O60566 1-1050; O43684 1-328)”, the binding result with BUB1^FL/BUB3 complex [1] is “binds”.

B1: eGFP-CENP-E^2070-C (domain or fragment, human, UniProt Q02224 2070-2701, looked up)
chain: RQNHQVKPEKRLLSDGQQHLTESLREKCSRIKELLKRYSEMDDHYECLNRLSLDLEKEIEFQKELSMRVKANLSLPYLQTKHIEKLFTANQRCSMEFHRIMKKLKYVLSYVTKIKEEQHESINKFEMDFIDEVEKQKELLIKIQHLQQDCDVPSRELRDLKLNQNMDLHIEEILKDFSESEFPSIKTEFQQVLSNRKEMTQFLEEWLNTRFDIEKLKNGIQKENDRICQVNNFFNNRIIAIMNESTEFEERSATISKEWEQDLKSLKEKNEKLFKNYQTLKTSLASGAQVNPTTQDNKNPHVTSRATQLTTEKIRELENSLHEAKESAMHKESKIIKMQKELEVTNDIIAKLQAKVHESNKCLEKTKETIQVLQDKVALGAKPYKEEIEDLKMKLVKIDLEKMKNAKEFEKEISATKATVEYQKEVIRLLRENLRRSQQAQDTSVISEHTDPQPSNKPLTCGGGSGIVQNTKALILKSEHIRLEKEISKLKQQNEQLIKQKNELLSNNQHLSNEVKTWKERTLKREAHKQVTCENSPKSPKVTGTASKKKQITPSQCKERNLQDPVPKESPKSCFFDSRSKSLPSPHPVRYFDNSSLGLCPEVQNAGAESVDSQPGPWHASSGKDVPECKTQ
notes: codon-optimized cDNA; N-terminal PreScission-cleavable His6-eGFP tag from the pLIB-eGFP vector; source: insect cells (baculovirus made in Sf9, Tnao38 infected), purified (HisTrap, Superose 6 SEC); not shown: eGFP, N-terminal, kept
Consider B1, for which, in the test with BUB1^FL/BUB3 complex [2], the binding entry is “no binding (tested: 16 μM CENP-E construct, 4 μM BUB1/BUB3)”.
